Results from US20240084005A1 (ALLAKOS, published 2024).
Where a chain is given by its changes, count along the chain named. No constants are given. Whether binding was seen depends on the method and setting. Some entries that bind do so weakly or less than the wild type.

The chains behind the UniProt entries cited, without tags or fusion partners. Where a name states a change or a piece, a line headed by the entry shows the natural chain unless it says otherwise.
UniProt O43699: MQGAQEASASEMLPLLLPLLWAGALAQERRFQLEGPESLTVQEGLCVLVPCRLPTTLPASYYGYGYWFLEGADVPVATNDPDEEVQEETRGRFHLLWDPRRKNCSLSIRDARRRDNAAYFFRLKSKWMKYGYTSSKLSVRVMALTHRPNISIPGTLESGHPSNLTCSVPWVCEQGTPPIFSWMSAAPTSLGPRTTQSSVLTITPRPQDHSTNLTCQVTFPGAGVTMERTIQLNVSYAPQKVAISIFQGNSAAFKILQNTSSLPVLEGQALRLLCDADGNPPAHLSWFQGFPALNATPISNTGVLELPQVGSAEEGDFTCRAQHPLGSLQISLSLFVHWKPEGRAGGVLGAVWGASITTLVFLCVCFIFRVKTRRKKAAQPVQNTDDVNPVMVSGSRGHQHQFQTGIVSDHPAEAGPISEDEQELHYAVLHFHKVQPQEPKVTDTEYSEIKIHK

Key:
Siglec-6 ECD Fc protein = biological target: T1, Siglec-6 ECD Fc protein (human, UniProt O43699 27-347); experiment: domain-mapping ELISA; domain 2 binders bound full ECD-Fc and domains 1 and 2-Fc
T1 construct: also called Siglec-6 full ECD fused to a human Fc; not shown: human Fc

[1] = biological target: Siglec-6 domains 1 and 2 fused to a human Fc (human) (UniProt O43699); experiment: as above
[2] = biological target: Siglec-6 (antigen of Example 8) (human, UniProt O43699 27-347, limits assumed); experiment: BLI, monovalent Fab

B1: AK11 (antibody, V domains shown)
VH: EVMLVESGGGLVKPGGSLKLSCAASGFSFSTYVMSWVRQTPEKRLEWVASISGGGSNTYYPDSVKGRFTISRDNAKNTLYLQMSSLRSEDTALYYCARREVVVYWYFDVWGTGTTVTVSS
VL: DIQMTQSPASLSVSVGETVTITCRASENIYSNLAWYQQKQGKSPQLLVFSAKNLADGVPSRFGGSGSGTQYSLKINSLQSEDFGTYYCQHFWGTPLTFGAGTKLELK
notes: also called anti-Siglec-6 mAb AK11
binding (Siglec-6 ECD Fc protein): binds
binding [1]: binds

B2: AK19 Fab (Fab, V domains shown)
VH: QVQLQESGPGLVKPSETLSLTCTVSGFSLTSYGVSWIRQPPGKGLEWIGVIWHDGSTSYHSTLISRVTISRDTSKNQVSLKLSSVTAADTAVYYCASDGYSGTFAYWGQGTLVTVSS
VL: QIVVTQSPATLSLSPGERATLSCTASSSVSSSYLHWYQQKPGQAPRLLIYSTSILASGIPARFSGSGSGTDFTLTISSLQPEDFAVYYCHQYHRSPYTFGQGTKLEIK
binding [2]: binds

B3: AK21 Fab (Fab, V domains shown)
VH: B2 VH with T30S, S58N, H60N, S61P, T62S, I64K
VL: B2 VL
binding [2]: binds

B4: AK20 Fab (Fab, V domains shown)
VH: B2 VH with S61P, T62S, I64K
VL: B2 VL
binding [2]: binds
